Measured values reported in patent US20260209372A1.
Positions count from the first letter of the chain named. Results are given in words; binding and its absence hold for the method and conditions named. Some binding calls cover weakened binding; strength is not graded here. Values belong to the binder of their own block, whether it stands above or below them.

Assays:
[1] = biological target: recombinant cynomolgus CD30L protein (cynomolgus); assay: ELISA, purified cyno CD30L
[2] = biological target: cynomolgus CD30L expressed on cells (cynomolgus); assay: flow cytometry, HEK293 cells expressing cyno CD30L
[3] = biological target: cynomolgus CD30L expressed on cells (cynomolgus); assay: flow cytometry

- binding [1]: binds
- binding [2]: binds
B1: Clone 2 (antibody, V domains shown)
VH: EVQLVESGGGLVQPGRSLRLSCAASGFNFDDYAMHWVRQAPGKGLEWVSGISWRSGNIGYAGSVKGRFTISRDNAKNSLYLQMNSLRPEDSALYYCAKDKGIGFNWNYEGFDYWGQGTLVTVSS
VL: DIQMTQSPSSLSASVGDRVTITCRASQGISNHLAWFQQKPGKAPKSLIYAASSLQSGVPSKFSGSGSGTDFTLTISSLQPEDFATYYCQQYVTYPLTFGGGTKVEIK

- binding [3]: binds
- binding [1]: binds
- binding [2]: binds
B2: clone 2 germlined (antibody, V domains shown)
VH: B1 VH with G62D, P88A, S91T
VL: B1 VL with K61R

- binding [1]: binds
- binding [2]: binds
B3: Clone 1 (antibody, V domains shown)
VH: QVQLQESGPGLVKPSETLSLTCTVSGGSISGYYWSWIRQPPVKGLEWIGYIFYSGYTKYNPSLKSRVTISVDTSKNQFSLKLSSVTAADTAVYYCARDRWDFDYWGQGALVTVSS
VL: AIQMTQSPSYLSASVGDRVTIACRASQGIRNNLGWYQQKPGKAPKLLIYAESSLQSGVPSRFSGSGSGTDFTLTISSLQPEDFATYYCLQDFNYPYTFGQGTKLEIK
